Source: PubChem BioAssay AID1053208 (Peter MacCallum Cancer Centre, 2014)
The whole screen tested about 17,000 reagents; this is an unselected part. Over the whole deposit, 788 (4.7%) are marked active. 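Calls rest on z-score classes alone; an extra cut-off of viability at most 70% of control was not applied to them.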

- Purpose: 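Genes whose silencing cuts survival of bone tumour cells only with doxorubicin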 (primary screen)
- Cell system: mouse osteosarcoma cells, early-passage culture from an engineered mouse model of fibroblastic bone tumour
- Knock-down reagent: siRNA pool against mouse genes, 40 nM
- Duration: about 120 h (48 h before drug, then 72 h with drug)
- Treatment: doxorubicin 100 nM for 72 h, roughly 30-40% inhibitory dose
- Detection: 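Luminescent ATP signal taken as viability with or without 100 nM doxorubicin for 72 h; mean of two wells set against non-targeting siRNA and turned into robust z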
- Direction: viability z-score with doxorubicin and doxorubicin viability vs non-targeting: higher = more viable cells under doxorubicin; viability z-score without drug: higher = more viable cells with knock-down alone; z-score of drug to no-drug ratio: higher = less drug sensitisation by knock-down
- Active means: 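a pool counts as active when its viability z-score with doxorubicin is -2 or below and its z-score without drug lies between -2 and 2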

gene knocked down	combined z-score class	viability z-score with doxorubicin	viability z-score without drug	z-score of drug to no-drug ratio	doxorubicin viability vs non-targeting	Outcome
Aldh1a1 (aldehyde dehydrogenase family 1, subfamily A1)	no change with or without drug	-0.22	0.51	-0.45	0.92	inactive
Or2ag2 (olfactory receptor family 2 subfamily AG member 2)	no change with or without drug	0.56	-0.17	0.79	0.99	inactive
1700123O20Rik (RIKEN cDNA 1700123O20 gene)	no change with or without drug	-1.01	0.84	-1.46	0.85	inactive
Clec4a3 (C-type lectin domain family 4, member a3)	no change with or without drug	0.56	0.17	0.56	0.99	inactive
Rps24 (ribosomal protein S24)	low cell count with and without drug	-6.41	-6.91	-3.26	0.37	inactive
Or52b4 (olfactory receptor family 52 subfamily B member 4)	high cell count without drug only	1.91	2.02	0.67	1.11	inactive
Rad52 (RAD52 homolog, DNA repair protein)	no change with or without drug	0.9	-0.34	1.35	1.02	inactive
Hsd11b2 (hydroxysteroid 11-beta dehydrogenase 2)	no change with or without drug	-1.35	-1.52	-0.34	0.82	inactive
Slc22a8	no change with or without drug	0.67	1.18	0	1	inactive
Etnk1 (ethanolamine kinase 1)	no change with or without drug	-1.12	0.17	-1.12	0.84	inactive
Fundc2b (FUN14 domain containing 2B)	no change with or without drug	-0.67	1.01	-1.24	0.88	inactive
Tcf12 (transcription factor 12)	no change with or without drug	0	0.84	-0.45	0.94	inactive
Tmub1 (transmembrane and ubiquitin-like domain containing 1)	no change with or without drug	-0.67	-0.51	-0.22	0.88	inactive
Lrch4	no change with or without drug	-0.9	-0.51	-0.56	0.86	inactive
Drc10 (dynein regulatory complex subunit 10)	no change with or without drug	-1.57	-0.17	-1.46	0.8	inactive
B230325K18Rik (RIKEN cDNA B230325K18 gene)	no change with or without drug	-0.22	-0.84	0.45	0.92	inactive
Gnb5 (guanine nucleotide binding protein (G protein), beta 5)	no change with or without drug	0.22	-0.34	0.56	0.96	inactive
Srd5a3 (steroid 5 alpha-reductase 3)	high cell count with doxorubicin only	3.26	0.51	3.15	1.23	inactive
Srp14 (signal recognition particle 14)	no change with or without drug	0	0.84	-0.45	0.94	inactive
Acsm4 (acyl-CoA synthetase medium-chain family member 4)	no change with or without drug	0.34	0.84	-0.11	0.97	inactive
Or52n2 (olfactory receptor family 52 subfamily N member 2)	no change with or without drug	0	-0.51	0.45	0.94	inactive
Hpd (4-hydroxyphenylpyruvic acid dioxygenase)	low cell count without drug only	-0.22	-2.02	1.46	0.92	inactive
Ecm1 (extracellular matrix protein 1)	no change with or without drug	-0.45	0	-0.34	0.9	inactive
Etos1 (ectopic ossification 1)	no change with or without drug	-0.22	1.35	-1.01	0.92	inactive
4833444G19Rik (RIKEN cDNA 4833444G19 gene)	no change with or without drug	0.67	1.69	-0.34	1	inactive
Ebag9 (estrogen receptor-binding fragment-associated gene 9)	no change with or without drug	1.8	0	2.02	1.1	inactive
Tmem114 (transmembrane protein 114)	no change with or without drug	0	0.51	-0.22	0.94	inactive
Irx3 (Iroquois related homeobox 3)	no change with or without drug	-1.8	0.17	-1.91	0.78	inactive
Scd1 (stearoyl-Coenzyme A desaturase 1)	high cell count with and without drug	2.02	2.36	0.56	1.12	inactive
Cpne7 (copine VII)	no change with or without drug	-1.24	-1.52	-0.11	0.83	inactive
Eny2 (ENY2 transcription and export complex 2 subunit)	low cell count with doxorubicin only	-3.6	-1.01	-3.15	0.62	active
Thoc1 (THO complex 1)	no change with or without drug	-0.67	0.67	-1.01	0.88	inactive
Gna11 (guanine nucleotide binding protein, alpha 11)	no change with or without drug	0.45	-0.67	1.12	0.98	inactive
Nemf (nuclear export mediator factor)	high cell count with doxorubicin only	2.25	1.69	1.24	1.14	inactive

Called active, among the entries above:
gene knocked down	combined z-score class	viability z-score with doxorubicin	viability z-score without drug	z-score of drug to no-drug ratio	doxorubicin viability vs non-targeting	Outcome
Eny2 (ENY2 transcription and export complex 2 subunit)	low cell count with doxorubicin only	-3.6	-1.01	-3.15	0.62	active
